Measured values: PubChem BioAssay AID1439 (NMMLSC, 2008)
The campaign covered roughly 220,000 compounds. About 770 (0.35%) were called active. The shares of active, inactive and inconclusive entries below differ from those in the screen. Cut-off read from the data, not from the text of the source: active = binding response below about 49% or above about 150%; inconclusive = no clear call, values can overlap the other calls; inactive = in between.

Sequences of proteins named here, by UniProt entry; tags and fusion partners are left off.
UniProt P09471, whole entry, looked up: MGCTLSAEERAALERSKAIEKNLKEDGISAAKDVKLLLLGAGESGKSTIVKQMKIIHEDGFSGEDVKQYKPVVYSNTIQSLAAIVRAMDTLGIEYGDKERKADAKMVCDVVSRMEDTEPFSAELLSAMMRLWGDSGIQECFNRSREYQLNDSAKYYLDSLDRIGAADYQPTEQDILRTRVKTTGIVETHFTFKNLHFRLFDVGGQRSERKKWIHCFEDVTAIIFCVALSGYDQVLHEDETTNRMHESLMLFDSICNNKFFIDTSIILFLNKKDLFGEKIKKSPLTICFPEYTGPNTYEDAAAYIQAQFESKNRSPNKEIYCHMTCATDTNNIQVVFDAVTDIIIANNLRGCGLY

Biological target: Guanine nucleotide-binding protein G(o) subunit alpha (Homo sapiens) (UniProt P09471)
Assay: RGS7-Galphao binding modulators, primary screen, biochemical, multiplexed bead flow cytometry (AID 1439);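 note: fluorescent Galphao held in activated GDP-AlF4 state binding bead-coupled RGS7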
Settings: at 10 µM, actives lie on both sides

| Compound | binding response (% of control) |
| --- | --- |
| CCCCN1C(=O)C(NC(=O)CC(C)C)(C(F)(F)F)C2=C1CC(C)(C)CC2=O (centres undefined) | inactive: 100% |
| O=C(C1=C(O)C(=O)N(c2nccs2)C1c1ccccc1)c1cc2ccccc2o1 (centres undefined) | inconclusive: 80.9% |
| Cc1ccccc1-c1noc(-c2ccccc2C(=O)NCC2CCCO2)n1 (centres undefined) | inconclusive: 89.8% |
| COc1ccccc1C(=O)NCCc1c(C)[nH]c2c(C)ccc(F)c12 | inactive: 109% |
| O=[N+]([O-])c1cccc(-c2nnc(SCc3cccnc3)o2)c1 | inactive: 93.2% |
| C[C@@H]1CC=C[C@H]2[C@H]1C(=O)N(Cc1ccccc1)[C@H]2c1ccc(F)c(Br)c1 | inconclusive: 101% |
| O=c1c2ccccc2n(CC(O)CN2CCCCC2)c2ccccc12 (centres undefined) | inconclusive: 82.5% |
| COC(=O)c1ccc(C23CC4(C2)[C@H](CN(C)[C@@H]4c2ccccc2)C3c2ccc(Cl)nc2)cc1 (some centres undefined) | inconclusive: 119% |
| CC(C)(C)C(=O)N(Cc1ccc(Cl)cc1)Cc1cccnc1 | inconclusive: 108% |
| O=C(c1ccccc1F)N(Cc1nc2ccccc2c(=O)[nH]1)C1CCCC1 | inactive: 102% |
| CSc1nc(SC(C)C(=O)O)c2c3c(sc2n1)COC(C)(C)C3 (centres undefined) | inconclusive: 93.3% |
| Cc1cc(C)n2nc(C(=O)OCCOc3cccc(Br)c3)nc2n1 | inactive: 102% |
| NS(=O)(=O)c1ccc(NC(=O)COC(=O)c2cc([N+](=O)[O-])ccc2Cl)cc1 | inconclusive: -207% |
| C=CC(=O)NCc1ccc(-c2csnn2)cc1 | inconclusive: 69.3% |
| O=C(/C=C/c1cccs1)NC(=S)Nc1ccc(S(=O)(=O)Nc2ccccc2C(F)(F)F)cc1 | inconclusive: -12% |
| O=C(O)c1ccc(/C=N/Nc2ccc(S(=O)(=O)N3CCCC3)cc2[N+](=O)[O-])cc1 | inconclusive: 60.1% |
| COc1ccccc1N1CCN(C(=O)c2cc(C(C)(C)C)oc2C)CC1 | inconclusive: 120% |
| Cc1ccccc1Cn1c2ccccc2c2cnn(CC(=O)NCc3ccco3)c(=O)c21 | inconclusive: 311% |
| O=C(NNS(=O)(=O)c1ccccc1)c1cnn(-c2ccc(Cl)cc2)c1C(F)(F)F | inconclusive: 14.6% |
| O=S(=O)(c1ccc(-c2ccon2)s1)N1CCCC1 | inconclusive: 115% |
| CCCCc1n[nH]c2c1/C(=N/OCC)CC(C)(C)C2 | inconclusive: 89.6% |
| COc1ccc(/C=C/c2nnc(NC(=O)C(C)C)s2)cc1 | inconclusive: 84.2% |
| Nc1ccc(S(=O)(=O)Nc2ccnn2-c2ccccc2)cc1 | inconclusive: 109% |

| Compound | binding response (% of control) |
| --- | --- |
| COCCNc1c2c(nc3c(-c4ccccc4)c(C)nn13)CCC2 | inconclusive: 68.5% |
| COc1ccc(NC(=O)CSc2nnc(CNC(=O)c3ccco3)o2)cc1 | inactive: 108% |
| CCOc1ccc(-n2c(=S)sc3c(=O)[nH]c(SCC(=O)C(C)(C)C)nc32)cc1 | inactive: 101% |
| COc1ccc(C2CC(c3ccc4ccccc4c3)=NN2C(=O)CN2C(=O)CCC2=O)cc1 (centres undefined) | inconclusive: 111% |
| COc1ccccc1NC(=O)CC(NC1CCCCC1)C(=O)O (centres undefined) | inactive: 100% |
| CC1(C)CC(=O)C=C(Nc2ccccc2)C1 | inconclusive: 130% |
| CC(/C=C/C1(O)C(C)CC(O)CC1(C)C)OC1OC(CO)C(O)C(O)C1O (centres undefined) | inconclusive: 90.3% |
| Cc1cc(C)cc(NC(=O)N2CCCN(Cc3c(F)cccc3Cl)CC2)c1 | inconclusive: 101% |
| S=c1[nH]nc(-c2ccccn2)n1/N=C/c1ccc(Cl)c(Cl)c1 | inconclusive: 244% |
| O=C1OC(/C(=C\Nc2ccc(F)cc2F)[N+](=O)[O-])c2ccccc21 (centres undefined) | inconclusive: 102% |
| CC(=O)Nc1c(O)nc(C)[nH]c1=O | inconclusive: 93% |
| Cc1nnc(Sc2nc3c(c(=O)[nH]c(=O)n3C)n2CCc2ccccc2)s1 | inconclusive: 119% |
| Fc1ccccc1/C=C1\CCCC2=C1NC(=S)NC2c1ccccc1F (centres undefined) | inconclusive: 101% |
| CN1CCN(CCNC(=O)Nc2ccc([N+](=O)[O-])cc2)CC1 | inconclusive: 95% |
| Cc1ccc(S(C)(=O)=NS(=O)(=O)c2cccc3nsnc23)cc1 (centres undefined) | inconclusive: 129% |
| COc1ccc(-c2csc(N3CCN(c4cc(C)nc5ccccc45)CC3)n2)cc1OC | inconclusive: 113% |
| NC(=S)N/N=C/c1coc2ccc(O)cc2c1=O | inconclusive: 147% |
| CCCCNC(=O)NS(=O)(=O)c1ccc(NC(=O)C(NC(N)=O)C(C)CC)cc1 (centres undefined) | inconclusive: 91.5% |
| O=[N+]([O-])/C(C(Cl)=C(Cl)Cl)=C1\Nc2ccccc2O1 | inconclusive: 103% |
| COc1cc([N+](=O)[O-])cc2sc(NC(C)=O)nc12 | inconclusive: 103% |
| COc1ccc(-c2ccc(N(C)C)cc2)cc1[C@H]1[C@H]2C=CC[C@@H](C)[C@@H]2C(=O)N1Cc1ccccc1 | inconclusive: 117% |
| COc1ccc(/C=C/C(=O)NC(=S)NNC(=O)c2cnccn2)cc1 | inconclusive: 30% |
| CCOc1ncccc1C(=O)Nc1ccccc1F | inconclusive: 166% |

| Compound | binding response (% of control) |
| --- | --- |
| O=C(NNC(=O)C1[C@H]2CCCC[C@@H]12)c1ccc(=O)oc1 (some centres undefined) | inconclusive: 138% |
| COc1cccc(C(=O)Nc2sc(C(C)C)cc2C(N)=O)c1OC | inconclusive: 98.7% |
| CCC(=O)Nc1ccc(C(=O)NCc2ccccn2)cc1 | inconclusive: 98.5% |
| O=C(COc1ccccc1)Nc1ccc2c(c1)C(=O)N(CC1CCCO1)C2=O (centres undefined) | inconclusive: 102% |
| Cc1cccc(C2(c3cccc(C)c3)CC2C(=O)Nc2ccc([N+](=O)[O-])cc2O)c1 (centres undefined) | inactive: 101% |
| N#CC1=C2Sc3ccccc3N2CCCC1=O | inactive: 103% |
| COc1ccc(CNC(C)C(=O)Nc2ccc3ccccc3c2)cc1OC (centres undefined) | inconclusive: 90.1% |
| CC(=O)Nc1ccc(C(=O)/C=C/c2ccc[nH]2)cc1 | inconclusive: 99.3% |
| COc1cc(C#N)ccc1OCC(=O)Nc1ccc(C)c(S(=O)(=O)N2CCOCC2)c1 | inconclusive: 96.5% |
| O=C(OC1CCOC1=O)c1ccc(NS(=O)(=O)c2cccs2)cc1 (centres undefined) | inconclusive: 82% |
| O=C(CN1C(=O)CSc2ccccc21)N/N=C/c1ccco1 | inconclusive: 152% |
| O=C(NC1CCN(Cc2ccccc2)CC1)c1ccc(Oc2cc(Cl)cc(Cl)c2)o1 | inconclusive: 119% |
| COc1ccc(NC(=O)c2ccc3ccccc3n2)cc1S(=O)(=O)Nc1ccccc1Cl | inactive: 101% |
| CCC1CCCCN1CC(C)(C)NS(=O)(=O)c1ccccc1 (centres undefined) | inconclusive: 65.9% |
| O=C(c1cc2cc([N+](=O)[O-])ccc2oc1=O)n1cccn1 | inconclusive: 70.7% |
| C=CC(COCc1ccccc1)N(Cc1ccccc1)S(=O)(=O)c1ccccc1Br (centres undefined) | inconclusive: 118% |
| CN1CCN(C(CNS(=O)(=O)c2cccs2)c2cccnc2)CC1 (centres undefined) | active: -9.98% |
| Cc1ccccc1Nc1nnc(SCc2nc3ccccc3c(=O)[nH]2)s1 | inconclusive: 95.8% |
| Cc1ccc(OCC(=O)N(Cc2ccc(N(C)C)cc2)C2CCS(=O)(=O)C2)cc1C (centres undefined) | inconclusive: 97.8% |
| CN(C(=O)CCc1nc(-c2ccccc2F)no1)c1ccccc1 | inconclusive: 116% |
| O=C1C2Sc3[nH]c(=O)sc3C(c3cc([N+](=O)[O-])ccc3O)C2C(=O)N1c1ccccc1 (centres undefined) | inconclusive: 100% |
| CCOC(=O)c1sc(/N=C/C2=C(O)CC(C)(C)CC2=O)c(C(=O)OCC)c1C | inactive: 107% |
| COC(=O)c1ccc(NC(C(=O)OC)C(C)C)c([N+](=O)[O-])c1 (centres undefined) | inactive: 103% |

Arranged by molecular weight (largest number first): part of the list above

| Compound | binding response (% of control) |
| --- | --- |
| C=CC(COCc1ccccc1)N(Cc1ccccc1)S(=O)(=O)c1ccccc1Br (centres undefined) | inconclusive: 118% |
| Cc1ccc(OCC(=O)N(Cc2ccc(N(C)C)cc2)C2CCS(=O)(=O)C2)cc1C (centres undefined) | inconclusive: 97.8% |
| CCCCNC(=O)NS(=O)(=O)c1ccc(NC(=O)C(NC(N)=O)C(C)CC)cc1 (centres undefined) | inconclusive: 91.5% |
| Cc1cccc(C2(c3cccc(C)c3)CC2C(=O)Nc2ccc([N+](=O)[O-])cc2O)c1 (centres undefined) | inactive: 101% |
| Cc1nnc(Sc2nc3c(c(=O)[nH]c(=O)n3C)n2CCc2ccccc2)s1 | inconclusive: 119% |
| COc1ccc(NC(=O)CSc2nnc(CNC(=O)c3ccco3)o2)cc1 | inactive: 108% |
| Cc1ccccc1Nc1nnc(SCc2nc3ccccc3c(=O)[nH]2)s1 | inconclusive: 95.8% |
| O=C(COc1ccccc1)Nc1ccc2c(c1)C(=O)N(CC1CCCO1)C2=O (centres undefined) | inconclusive: 102% |
| CSc1nc(SC(C)C(=O)O)c2c3c(sc2n1)COC(C)(C)C3 (centres undefined) | inconclusive: 93.3% |
| Fc1ccccc1/C=C1\CCCC2=C1NC(=S)NC2c1ccccc1F (centres undefined) | inconclusive: 101% |
| O=C(c1ccccc1F)N(Cc1nc2ccccc2c(=O)[nH]1)C1CCCC1 | inactive: 102% |
| COc1ccc(CNC(C)C(=O)Nc2ccc3ccccc3c2)cc1OC (centres undefined) | inconclusive: 90.1% |
| Cc1ccccc1-c1noc(-c2ccccc2C(=O)NCC2CCCO2)n1 (centres undefined) | inconclusive: 89.8% |
| COc1ccccc1N1CCN(C(=O)c2cc(C(C)(C)C)oc2C)CC1 | inconclusive: 120% |
| O=c1c2ccccc2n(CC(O)CN2CCCCC2)c2ccccc12 (centres undefined) | inconclusive: 82.5% |
| CC(C)(C)C(=O)N(Cc1ccc(Cl)cc1)Cc1cccnc1 | inconclusive: 108% |
| O=C(CN1C(=O)CSc2ccccc21)N/N=C/c1ccco1 | inconclusive: 152% |
| O=[N+]([O-])/C(C(Cl)=C(Cl)Cl)=C1\Nc2ccccc2O1 | inconclusive: 103% |
| O=C(c1cc2cc([N+](=O)[O-])ccc2oc1=O)n1cccn1 | inconclusive: 70.7% |
| O=S(=O)(c1ccc(-c2ccon2)s1)N1CCCC1 | inconclusive: 115% |
| O=C(NNC(=O)C1[C@H]2CCCC[C@@H]12)c1ccc(=O)oc1 (some centres undefined) | inconclusive: 138% |
| COc1cc([N+](=O)[O-])cc2sc(NC(C)=O)nc12 | inconclusive: 103% |
| CCCCc1n[nH]c2c1/C(=N/OCC)CC(C)(C)C2 | inconclusive: 89.6% |
| CC1(C)CC(=O)C=C(Nc2ccccc2)C1 | inconclusive: 130% |
| CC(=O)Nc1c(O)nc(C)[nH]c1=O | inconclusive: 93% |

Additional results follow:

| Compound | binding response (% of control) |
| --- | --- |
| Cc1cc2ccccn2c1C(=O)Nc1ccccc1 | inconclusive: 87.3% |
| O=C(c1ccco1)N1N=C(c2ccc(Br)cc2)CC1(O)C(F)(F)F (centres undefined) | inconclusive: 86.4% |
| COc1cc(/C=N\Nc2cc(=O)n(C)c(=O)n2C)ccc1O | inactive: 104% |
| CC(=O)Nc1ccc(NS(=O)(=O)c2c(Cl)cccc2Cl)cc1 | inconclusive: 112% |
| O=C(/C=C/c1cc([N+](=O)[O-])ccc1OC(F)F)NCc1ccc(F)cc1 | inactive: 96.6% |
| CCCCCCCCCn1ccc(=N)cc1 | inconclusive: 100% |
| Cc1ccc(OCC(=O)Nc2cccc(S(=O)(=O)N3CCCCCC3)c2)c([N+](=O)[O-])n1 | inconclusive: 73% |
| O=C1NC(=Nc2ccc(F)cc2)SC1Cc1ccc(F)cc1 (centres undefined) | inconclusive: 85.6% |
| CCOC(=O)c1ccc(NC(c2ccc(N(C)C)cc2)P(=O)(OC(C)C)OC(C)C)cc1 (centres undefined) | inconclusive: 114% |
| O=C(NN1C(=O)/C(=C\c2ccc(O)c([N+](=O)[O-])c2)SC1=S)c1ccccc1Cl | inconclusive: 124% |
| S=C1NCN(Cc2cccnc2)CN1Cc1ccccc1 | inconclusive: 118% |
| COc1ccc2oc(C(=O)Nc3nc4ccccc4[nH]3)c(C)c2c1 | inconclusive: 51.2% |
| O=C1NC(CCc2ccccc2)C(=O)N1Cc1ccc(Br)cc1 (centres undefined) | inconclusive: 97.5% |
| O=C(Cc1csc(NC(=O)c2ccc(F)cc2)n1)NO | inactive: 102% |
| O=C1CNC(=O)N1CC(O)Cn1c2ccccc2c2ccccc21 (centres undefined) | inconclusive: 94.2% |
| Cc1cccc(Oc2ccc(S(=O)(=O)N3CCCCC3)cc2N)c1 | inconclusive: 109% |
| COc1ccc2ncc(OC(C)=O)cc2c1 | inactive: 101% |
| COc1ccc(Nc2oc(-c3ccccc3)nc2C#N)cc1 | inconclusive: 86.5% |
| Cc1cc(NC(=O)c2c(-c3c(Cl)cccc3Cl)noc2C)n(C)n1 | inconclusive: 86.7% |
| Cn1c(SCC(=O)c2ccccc2)nnc1-c1ccccn1 | inconclusive: -46.7% |
